The values that follow come from article PMC10063609, “Discovery of novel cardiac troponin activators using fluorescence polarization-based high throughput screening assays” (Scientific Reports, 2023).

In the experiment the target is interaction between cTnC and switch peptide of cTnI (cTnISP) (Homo sapiens, UniProt P63316). The experiment can be described thus: Fluorescence polarization HTS and dose-response, cTnC/FAM-cTnISP. It is filed as binding. As to conditions: cTnISP primary screen, ENZO Screenwell library, single concentration 50 μmol/L.

With `Clc1ccc(CSC(Cn2ccnc2)c2ccc(Cl)cc2Cl)cc1` (stereo not shown) [Sulconazole Nitrate], the “FP (mP)” value was 87.6 mP.
